Laboratory results: PubChem BioAssay AID743121 (NCATS, 2013)
This is an unselected part of about 26,000 deposited reagents. Of all reagents, 167 (0.63%) got an active call. 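Calls are per gene from RSA p-values that are not deposited; an individual active-marked siRNA can sensitise only weakly.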 Reagents against one gene are numbered here. Not all columns of the deposit are shown. No sequences are given here.

- Assay: 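Partners whose loss is lethal together with topoisomerase I blockade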 (primary screen)
- Cell system: MDA-MB-231 cells, a human breast cancer line
- Knock-down reagent: single siRNA against human genes, 20 nM siRNA (0.8 pmol per well)
- Duration: 120 h (drug added 48 h after transfection, read 72 h later)
- Treatment: camptothecin 20 nM (about EC30) for 72 h; vehicle 0.1% DMSO in parallel plates
- Read-out: 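Cell viability by ATP luminescence (CellTiter-Glo) as % of non-targeting siRNA wells, and the log2 ratio of viability without drug over viability with camptothecin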
- Reading the numbers: log2 vehicle/camptothecin viability: higher = stronger sensitisation to camptothecin; viability with camptothecin: higher = more viable cells
- Units: viability with camptothecin in % of control
- Active means: 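Active genes have an RSA gene-level p-value below 0.001, computed from the ratios of their separate siRNAs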

After knock-down of FKBP7 (FKBP prolyl isomerase 7) #1, the record shows log2 vehicle/camptothecin viability -0.0291; viability with camptothecin 64.8; inactive.
Silencing of FKBP7 (FKBP prolyl isomerase 7) #2 gave: log2 vehicle/camptothecin viability -0.461; viability with camptothecin 21.3; inactive.
For FKBP7 (FKBP prolyl isomerase 7) #3, the values are log2 vehicle/camptothecin viability -0.174; viability with camptothecin 71.1; inactive.
FKBP7 (FKBP prolyl isomerase 7) #4 gave log2 vehicle/camptothecin viability 0.0551; viability with camptothecin 101; inactive.
Against CRHR1 (corticotropin releasing hormone receptor 1) #1, the values are log2 vehicle/camptothecin viability -0.289; viability with camptothecin 82.3; inactive.
After knock-down of CRHR1 (corticotropin releasing hormone receptor 1) #2, the record shows log2 vehicle/camptothecin viability -0.0315; viability with camptothecin 96.9; inactive.
For CRHR1 (corticotropin releasing hormone receptor 1) #3, the entry reads log2 vehicle/camptothecin viability -0.333; viability with camptothecin 84.8; inactive.
CRHR1 (corticotropin releasing hormone receptor 1) #4 showed log2 vehicle/camptothecin viability -0.304; viability with camptothecin 92.2; inactive.
KCNK10 (potassium two pore domain channel subfamily K member 10) #1 gave log2 vehicle/camptothecin viability -0.148; viability with camptothecin 60; inactive.
With knock-down of KCNK10 (potassium two pore domain channel subfamily K member 10) #2, the screen gave log2 vehicle/camptothecin viability 0.116; viability with camptothecin 82.4; inactive.
KCNK10 (potassium two pore domain channel subfamily K member 10) #3 gave log2 vehicle/camptothecin viability -0.355; viability with camptothecin 42.9; inactive.
KCNK10 (potassium two pore domain channel subfamily K member 10) #4 gave log2 vehicle/camptothecin viability 0.433; viability with camptothecin 65; inactive.
CACNA1E (calcium voltage-gated channel subunit alpha1 E) #1 scored log2 vehicle/camptothecin viability -0.142; viability with camptothecin 93.2; inactive.
For CACNA1E (calcium voltage-gated channel subunit alpha1 E) #2, the values are log2 vehicle/camptothecin viability -0.409; viability with camptothecin 68.5; inactive.
With knock-down of CACNA1E (calcium voltage-gated channel subunit alpha1 E) #3, the screen gave log2 vehicle/camptothecin viability -0.534; viability with camptothecin 57; inactive.
Knock-down of CACNA1E (calcium voltage-gated channel subunit alpha1 E) #4 resulted in: log2 vehicle/camptothecin viability -0.425; viability with camptothecin 62.6; inactive.
Silencing of OR4D2 (olfactory receptor family 4 subfamily D member 2) #1 gave: log2 vehicle/camptothecin viability 0.266; viability with camptothecin 42.2; inactive.
After knock-down of OR4D2 (olfactory receptor family 4 subfamily D member 2) #2, the record shows log2 vehicle/camptothecin viability -0.411; viability with camptothecin 120; inactive.
After knock-down of OR4D2 (olfactory receptor family 4 subfamily D member 2) #3, the screen gave log2 vehicle/camptothecin viability -0.734; viability with camptothecin 101; inactive.
For OR4D2 (olfactory receptor family 4 subfamily D member 2) #4 the deposit lists log2 vehicle/camptothecin viability -0.216; viability with camptothecin 98.7; inactive.
Silencing of CNGA4 (cyclic nucleotide gated channel subunit alpha 4) #1 gave: log2 vehicle/camptothecin viability 0.0816; viability with camptothecin 96.5; inactive.
Against CNGA4 (cyclic nucleotide gated channel subunit alpha 4) #2, the entry reads log2 vehicle/camptothecin viability 0.207; viability with camptothecin 77.4; inactive.
Against CNGA4 (cyclic nucleotide gated channel subunit alpha 4) #3 the deposit lists log2 vehicle/camptothecin viability -0.19; viability with camptothecin 61.9; inactive.
After knock-down of CNGA4 (cyclic nucleotide gated channel subunit alpha 4) #4, the screen gave log2 vehicle/camptothecin viability -0.554; viability with camptothecin 60.4; inactive.

An excerpt from above, showing only “viability with camptothecin”.
FKBP7 (FKBP prolyl isomerase 7) #3: 71.1
FKBP7 (FKBP prolyl isomerase 7) #4: 101
CRHR1 (corticotropin releasing hormone receptor 1) #1: 82.3
CRHR1 (corticotropin releasing hormone receptor 1) #2: 96.9
CRHR1 (corticotropin releasing hormone receptor 1) #3: 84.8
CRHR1 (corticotropin releasing hormone receptor 1) #4: 92.2

Next entries:
With knock-down of VCAM1 (vascular cell adhesion molecule 1) #1 the results were log2 vehicle/camptothecin viability -0.209; viability with camptothecin 74.1; inactive.
Against VCAM1 (vascular cell adhesion molecule 1) #2 the deposit lists log2 vehicle/camptothecin viability 0.202; viability with camptothecin 73; inactive.
Against VCAM1 (vascular cell adhesion molecule 1) #3, the entry reads log2 vehicle/camptothecin viability 0.189; viability with camptothecin 76.6; inactive.
Silencing of VCAM1 (vascular cell adhesion molecule 1) #4 resulted in: log2 vehicle/camptothecin viability -0.0355; viability with camptothecin 92.3; inactive.
After knock-down of IMPDH1 (inosine monophosphate dehydrogenase 1) #1, the screen gave log2 vehicle/camptothecin viability -0.0789; viability with camptothecin 109; inactive.
IMPDH1 (inosine monophosphate dehydrogenase 1) #2 showed log2 vehicle/camptothecin viability 0.0686; viability with camptothecin 58.2; inactive.
For IMPDH1 (inosine monophosphate dehydrogenase 1) #3, the entry reads log2 vehicle/camptothecin viability -0.237; viability with camptothecin 110; inactive.
Against IMPDH1 (inosine monophosphate dehydrogenase 1) #4, the entry reads log2 vehicle/camptothecin viability -0.334; viability with camptothecin 42.2; inactive.
DAPK3 (death associated protein kinase 3) #1 gave log2 vehicle/camptothecin viability -0.354; viability with camptothecin 74.5; inactive.
DAPK3 (death associated protein kinase 3) #2 showed log2 vehicle/camptothecin viability 0.253; viability with camptothecin 84.4; inactive.
Knock-down of DAPK3 (death associated protein kinase 3) #3 came out at: log2 vehicle/camptothecin viability -0.619; viability with camptothecin 52.7; inactive.
Knock-down of DAPK3 (death associated protein kinase 3) #4 gave: log2 vehicle/camptothecin viability -0.216; viability with camptothecin 80.2; inactive.
